{"sequences": {"note": "Sequences of proteins named here, by UniProt entry; tags and fusion partners are left off.", "UniProt Q13148": "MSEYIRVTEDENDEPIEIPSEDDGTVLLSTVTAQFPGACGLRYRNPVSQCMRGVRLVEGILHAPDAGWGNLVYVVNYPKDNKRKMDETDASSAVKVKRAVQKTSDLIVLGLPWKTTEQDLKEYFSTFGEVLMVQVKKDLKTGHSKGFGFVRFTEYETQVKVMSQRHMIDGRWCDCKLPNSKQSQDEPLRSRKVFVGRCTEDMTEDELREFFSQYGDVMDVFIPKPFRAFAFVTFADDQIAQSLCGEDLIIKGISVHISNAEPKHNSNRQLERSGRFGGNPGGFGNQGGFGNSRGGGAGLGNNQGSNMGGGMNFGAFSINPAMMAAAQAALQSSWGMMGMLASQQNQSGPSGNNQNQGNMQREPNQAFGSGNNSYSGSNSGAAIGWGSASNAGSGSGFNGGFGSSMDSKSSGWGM"}, "source": "paper PMC7997989", "key": {"CHCHD10^WT-FLAG (human)": {"molecular_target": "T1, CHCHD10^WT-FLAG (human) (UniProt Q8WYQ3)", "T1 sequence": "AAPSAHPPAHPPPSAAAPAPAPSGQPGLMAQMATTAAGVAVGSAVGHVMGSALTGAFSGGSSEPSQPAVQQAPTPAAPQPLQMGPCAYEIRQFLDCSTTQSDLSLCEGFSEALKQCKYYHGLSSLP", "assay": "co-IP; HEK293T cells co-transfected with CHCHD10-FLAG (WT or S59L) and TDP-43-tomato-HA; NP-40 lysis buffer (20 mM Tris, 137 mM NaCl, 1% NP-40, 2 mM EDTA), sonicated; anti-FLAG M2 affinity gel overnight at 4 °C; blots with anti-FLAG and anti-HA"}, "[1]": {"molecular_target": "T2, CHCHD10^S59L-FLAG (human) (UniProt Q8WYQ3)", "T2 sequence": "T1 sequence with S43L", "assay": "co-IP; HEK293T cells co-transfected with CHCHD10-FLAG (WT or S59L) and TDP-43-tomato-HA; NP-40 lysis buffer (20 mM Tris, 137 mM NaCl, 1% NP-40, 2 mM EDTA), sonicated; anti-FLAG M2 affinity gel overnight at 4 °C; blots with anti-FLAG and anti-HA"}, "CHCHD10-HA (WT) (human)": {"molecular_target": "T3, CHCHD10-HA (WT) (human) (UniProt Q8WYQ3)", "T3 sequence": "T1 sequence", "assay": "co-IP; HEK293T cells co-transfected with HA-tagged CHCHD10 (WT or S59L) and TDP-43-FLAG; NP-40 lysis buffer; anti-FLAG M2 or anti-HA affinity gel overnight at 4 °C (which gel is not told)"}, "[2]": {"molecular_target": "T4, CHCHD10-HA (S59L) (human) (UniProt Q8WYQ3)", "T4 sequence": "T1 sequence with S43L", "assay": "co-IP; HEK293T cells co-transfected with HA-tagged CHCHD10 (WT or S59L) and TDP-43-FLAG; NP-40 lysis buffer; anti-FLAG M2 or anti-HA affinity gel overnight at 4 °C (which gel is not told)"}}, "note": "Positions count from the first letter of the chain named. No constants are given. Whether binding was seen depends on the method and setting. In cells and extracts the contact can be indirect. Some binding calls cover weakened binding; strength is not graded here. Tags and fused reporters may be left off the sequences shown."}
{"substance": "TDP-43-tomato-HA (from UniProt Q13148 1-414)", "values": [{"measurement": "binding", "setting": "CHCHD10^WT-FLAG (human)", "result": "binds"}, {"measurement": "binding", "setting": "[1]", "result": "binds"}]}
{"substance": "TDP-43-FLAG (from UniProt Q13148 1-414)", "values": [{"measurement": "binding", "setting": "CHCHD10-HA (WT) (human)", "result": "binds"}, {"measurement": "binding", "setting": "[2]", "result": "binds"}]}
